From PubChem BioAssay record AID1053133 (Broad Institute, 2014).

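Plate-reader measure of the Venus reporter marking one vaccinia stage in infected cells (the cell line is not named here); read time unknown. The test concentration is not given here. Percent change in Venus reporter signal; lower (more negative) values mean stronger inhibition of that viral stage.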

Values are in %. The controls that fix the scale are not given here. Common to all entries: measured here: Venus reporter, other viral stage. Part of the compounds only, not a random draw; the main read-out is not listed here.

structure,activity change (Venus) (%)
O=C(C[C@H]1CC[C@H]2[C@@H](COC[C@@H](O)CN2C(=O)Nc2cc(Cl)cc(Cl)c2)O1)NCC1CCCCC1,-26.22
O=C(C[C@@H]1C[C@H]2c3cc(NC(=O)Nc4ccc(C(F)(F)F)cc4)ccc3O[C@H]2[C@H](CO)O1)NCC1CC1,-27.51
COc1ccc2c3c(n(C)c2c1)[C@H](CO)N(C(=O)C1CCC1)CC31CCN(Cc2cccc(F)c2)CC1,-40.19
COc1cccc(NC(=O)N2CC(=O)N3[C@H](CO)[C@@H](c4ccc(C#CCC5CCCC5)cc4)[C@H]3C2)c1,-49.08
O=C(C[C@H]1CC[C@H]2[C@@H](COC[C@H](O)CN2Cc2ccc(Oc3ccccc3)cc2)O1)N1CCCCC1,-21.17
COc1ccc(NC(=O)Nc2ccc3c(c2)C(=O)N([C@H](C)CO)C[C@H](C)[C@H](CN(C)Cc2ccc(Oc4ccccc4)cc2)O3)cc1,-35.09
COc1cccc(NC(=O)N(C)C[C@@H]2Oc3ncc(/C=C/c4ccccc4)cc3C(=O)N([C@H](C)CO)C[C@H]2C)c1,-17.15
Cc1ccc(S(=O)(=O)Nc2ccc3c(c2)CC(=O)N([C@@H](C)CO)C[C@H](C)[C@H](CN(C)CC2CCCCC2)O3)cc1,-47.16
O=C(c1ccccc1F)N1CC(=O)N2[C@H](C1)[C@H](c1ccc(C#Cc3ccccc3)cc1)[C@@H]2CO,-54.29
C[C@H]1CN([C@@H](C)CO)S(=O)(=O)c2ccc(C#Cc3ccc(F)cc3)cc2O[C@@H]1CN(C)C(=O)CN(C)C,-45.61
CC(C)CC#Cc1ccc2c(c1)O[C@@H](CN(C)Cc1cccc(F)c1)[C@@H](C)CN([C@@H](C)CO)S2(=O)=O,-43.27
CNC[C@H]1Oc2cc(C#Cc3ccc(F)cc3)ccc2S(=O)(=O)N([C@H](C)CO)C[C@@H]1C,-12.05
CC(C)CC#Cc1ccc2c(c1)O[C@@H](CN(C)C(=O)Cc1cccnc1)[C@H](C)CN([C@@H](C)CO)S2(=O)=O,-33.51
C[C@H]1CN([C@@H](C)CO)C(=O)Cc2cc(NS(C)(=O)=O)ccc2O[C@H]1CN(C)Cc1ccc(Cl)c(Cl)c1,-65.08
Cc1noc(C)c1S(=O)(=O)Nc1ccc2c(c1)C(=O)N([C@@H](C)CO)C[C@@H](C)[C@H](CN(C)S(=O)(=O)c1ccccc1)OCCCC[C@@H](C)O2,-31.94
COc1ccc(CN(C)C[C@@H]2OCCCC[C@H](C)Oc3ccc(NC(=O)c4ccccc4)cc3C(=O)N([C@H](C)CO)C[C@H]2C)cc1,-51.16
CCCC#Cc1ccc2c(c1)O[C@@H](CN(C)C(=O)c1ccccc1)[C@H](C)CN([C@@H](C)CO)S2(=O)=O,-27.2
C[C@@H]1CCCCO[C@H](CN(C)Cc2ccccc2)[C@@H](C)CN([C@@H](C)CO)C(=O)c2cc(NS(=O)(=O)c3ccc(F)cc3)ccc2O1,-57.34
C[C@H](CO)N1C[C@H](C)[C@H](CN(C)S(=O)(=O)c2ccc(F)cc2)Oc2cc(Br)ccc2S1(=O)=O,-34.33
COc1ccccc1-c1ccc2c(c1)O[C@H](CN(C)S(=O)(=O)c1ccc(F)cc1)[C@H](C)CN([C@H](C)CO)S2(=O)=O,-33.95
CN(C)c1ccc2c(c1)[C@H]1C[C@H](CC(=O)NCc3ccc(Oc4ccccc4)cc3)O[C@H](CO)[C@H]1O2,-41.57
CO[C@H]1CN(C)C(=O)c2ccc(NC(=O)Nc3cc(Cl)cc(Cl)c3)cc2OC[C@H](C)NC[C@@H]1C,-76.12
CC(C)NC(=O)Nc1cccc2c1O[C@@H](CN(C)Cc1ccc(Cl)c(Cl)c1)[C@H](C)CN([C@@H](C)CO)C2=O,-60.5
C[C@H](CO)N1C[C@H](C)[C@H](CN(C)Cc2ccc(Cl)c(Cl)c2)Oc2c(NS(=O)(=O)c3cccs3)cccc2C1=O,-53.28
CCCNC(=O)N(C)C[C@H]1Oc2cc(-c3ccccc3F)ccc2S(=O)(=O)N([C@@H](C)CO)C[C@@H]1C,-29.22
N#C[C@H]1[C@@H](c2ccc(C#Cc3ccc(F)cc3)cc2)[C@H](CO)N1C(=O)C1CC1,-42.33
N#C[C@@H]1[C@H](c2ccc(C#CC3CCCC3)cc2)[C@H](CO)N1S(=O)(=O)c1ccccc1,-29.05
COc1ccc2c3c([nH]c2c1)[C@@H](CO)N(C(=O)C1CC1)CC31CN(Cc2cccc(F)c2)C1,-35.16
COc1ccc(NC(=O)Nc2ccc3c(c2)C(=O)N([C@@H](C)CO)C[C@@H](C)[C@H](CN(C)Cc2ccc4c(c2)OCO4)OCCCC[C@H](C)O3)cc1,-33.99
C[C@H]1CN([C@@H](C)CO)S(=O)(=O)c2ccc(C3=CCCCC3)cc2O[C@@H]1CN(C)Cc1ccncc1,-50.76
COc1ccccc1C#Cc1ccc([C@@H]2[C@@H](C#N)N(C(=O)C3CCCCC3)[C@@H]2CO)cc1,-26.41
C[C@@H]1CN([C@H](C)CO)C(=O)c2cc(C#Cc3ccc(F)cc3)cnc2O[C@@H]1CN(C)CC1CC1,-31.96
C[C@H]1CN([C@@H](C)CO)C(=O)c2cccc(NC(=O)NC3CCCCC3)c2O[C@@H]1CN(C)C(=O)Nc1ccc(C(F)(F)F)cc1,-61.55
C[C@@H]1CN([C@@H](C)CO)C(=O)c2c(c3ccccc3n2C)-c2ccccc2CO[C@@H]1CN(C)C(=O)Nc1ccnc(N2CCOCC2)c1,-27.3
C[C@@H]1CN([C@@H](C)CO)C(=O)c2cccc(NC(=O)c3ccncc3)c2O[C@H]1CN(C)Cc1ccc(-c2ccccc2)cc1,-29.09
CC(C)CC#Cc1ccc2c(c1)O[C@@H](CN(C)C(=O)c1cccc(F)c1)[C@@H](C)CN([C@H](C)CO)S2(=O)=O,-41.39
C[C@@H]1CCCCO[C@@H](CN(C)Cc2ccc3c(c2)OCO3)[C@H](C)CN([C@H](C)CO)C(=O)c2cc(NC(=O)Nc3ccc(F)cc3)ccc2O1,-40.21
C[C@@H]1CCCCO[C@@H](CN(C)S(=O)(=O)c2ccc(Cl)cc2)[C@H](C)CN([C@@H](C)CO)C(=O)c2cc(NS(=O)(=O)c3ccccc3)ccc2O1,-45.21
C[C@@H]1CCCCO[C@H](CN(C)Cc2ccccc2)[C@H](C)CN([C@@H](C)CO)C(=O)c2cc(NC(=O)Nc3cccc4ccccc34)ccc2O1,-39.92
C[C@H](CO)N1C[C@H](C)[C@@H](CN(C)Cc2ccc3c(c2)OCO3)OCCCC[C@H](C)Oc2ccc(NS(=O)(=O)c3ccc(F)cc3)cc2C1=O,-28.34
CC(C)NC(=O)N(C)C[C@H]1Oc2c(NC(=O)Nc3ccc(C(F)(F)F)cc3)cccc2C(=O)N([C@H](C)CO)C[C@H]1C,-38.99
C[C@H]1CN([C@@H](C)CO)C(=O)c2ccccc2-c2ccccc2CO[C@H]1CN(C)C(=O)[C@@H](Cc1ccccc1)N(C)C,-37.8
CO[C@H]1O[C@H](CO)[C@@H](OC(=O)Nc2ccccc2)[C@H](OC(=O)Nc2ccc3c(c2)OCO3)[C@@H]1OC(=O)Nc1ccc2c(c1)OCO2,-47.37
C[C@@H]1CN([C@H](C)CO)C(=O)c2cc(NC(=O)Nc3ccccc3)ccc2O[C@@H]1CN(C)Cc1ccc(Oc2ccccc2)cc1,-32.14
COc1ccc(S(=O)(=O)Nc2ccc3c(c2)C(=O)N([C@H](C)CO)C[C@H](C)[C@H](CN(C)Cc2ccc4c(c2)OCO4)OCCCC[C@@H](C)O3)cc1,-26.69
C[C@@H]1CN([C@H](C)CO)S(=O)(=O)c2ccc(/C=C/c3ccccc3)cc2O[C@H]1CN(C)Cc1ccccc1,-49.14

Some entries from above, unchanged:

| structure | activity change (Venus) (%) |
|---|---|
| `C[C@@H]1CN([C@H](C)CO)C(=O)c2cc(C#Cc3ccc(F)cc3)cnc2O[C@@H]1CN(C)CC1CC1` | -31.96 |
| `CCCNC(=O)N(C)C[C@H]1Oc2cc(-c3ccccc3F)ccc2S(=O)(=O)N([C@@H](C)CO)C[C@@H]1C` | -29.22 |
| `C[C@@H]1CCCCO[C@@H](CN(C)Cc2ccc3c(c2)OCO3)[C@H](C)CN([C@H](C)CO)C(=O)c2cc(NC(=O)Nc3ccc(F)cc3)ccc2O1` | -40.21 |